# According to the supplement of paper PMC12595434, “Development of retinoid nuclear receptor pathway antagonists through targeting aldehyde dehydrogenase 1A3” (iScience, 2025):
# This is one part of the list. This is a noisy data set.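 Tm was set to 64 °C where no melting was found, and many curves are irregular.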
# What was measured:
# [1] = molecular target: HSP90AA1 (UniProt P07900); test: melting temperature shift (DMSO Tm minus MBE1-treated Tm) in cellular thermal proteome profiling; higher = less thermal stabilization by MBE1 (negative = stabilized by MBE1); settings: A375
# [2] = molecular target: UniProt P13637; test: as above; settings: A375
structure (smiles),measurement,setting,value
CCc1cnccc1C(=O)Nc1cc2c(cc1F)NC(=O)CC2,melting temperature shift,[1]; MBE1 concentration: 100 nM,-0.55 °C
same,melting temperature shift,[1]; MBE1 concentration: 1 uM,-0.214 °C
same,melting temperature shift,[2]; MBE1 concentration: 100 nM,-1.23 °C
same,melting temperature shift,[2]; MBE1 concentration: 1 uM,0.0183 °C
